Some of the results follow. These are raw signals, not scaled to a control.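 In the initial screen, polymyxin B was used at a concentration that permeabilizes Salmonella's outer membrane but not its inner membrane. Maximum growth was set by DMSO wells with or without polymyxin B. Since plates varied, data were ranked per plate, and compounds giving the lowest OD600 advanced as hits.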
Tested on: Salmonella enterica serovar Typhimurium SL1344
Assay: bacterial growth OD600 after 18 h with compound and polymyxin B; higher = more bacterial growth (less inhibition)
Conditions: 50 µM, Mueller-Hinton broth

| SMILES | bacterial growth OD600 (polymyxin B 0.75 µg/mL) | bacterial growth OD600 (polymyxin B 1 µg/mL) |
| --- | --- | --- |
| CCn1cc(CN2CCC(C3(C)NC(=O)N(Cc4cccc(OC)c4OC)C3=O)CC2)c(C)n1 (stereo unspecified) | 0.852 |  |
| CC(C)(CO)CNC(=O)C1CCC(=O)N(CC2CCCCC2)C1 (stereo unspecified) |  | 0.953 |
| CC1(C)CC(CCNC(=O)CCC2(Cc3ccc(F)cc3)CCC(=O)N2)(c2ccccc2)CCO1 (stereo unspecified) | 0.804 |  |
| Cc1ncsc1CCC(=O)NCc1cccnc1Oc1ccc(F)cc1F | 0.833 |  |
| COc1ccc(CN2CCN(CCCn3cccn3)CC2CCO)cc1C (stereo unspecified) |  | 0.865 |
| CCC(=O)C1CCCN(Cc2cnc(S(=O)(=O)CC)n2CCCc2ccccc2)C1 (stereo unspecified) |  | 1.16 |
| OC1(Cc2cc(-c3ccccc3)no2)CCN(CC2CCCCC2)CC1 |  | 0.962 |
| COc1ccccc1CN1CC(C(=O)NCCc2ccccc2Cl)CCC1=O (stereo unspecified) |  | 0.905 |
| OCc1ccc(CN2CCCC(CCc3ccccc3)C2)o1 (stereo unspecified) | 0.851 |  |
| CCn1c(-c2cccnc2)nc2cc(NC(=O)COC)cc(C(=O)N3CCCC3c3nccs3)c21 (stereo unspecified) | 0.854 |  |
| CN(Cc1nc(Cc2cccc(C(F)(F)F)c2)no1)C(C1CC1)C1CC1 |  | 1 |
| CCOC(=O)C1(Cc2ccccc2C)CCCN(C(=O)Nc2ccccc2)C1 (stereo unspecified) |  | 0.106 |
| COC(=O)[C@@H](Nc1ccc(-c2nc(C3CC3)no2)cn1)c1ccccc1 | 0.362 |  |
| CC1CN(C(=O)c2coc(COc3cccc(C(F)(F)F)c3)n2)CCN1C (stereo unspecified) |  | 0.989 |
| CC(=O)c1cccc(OCc2cc(C(=O)N3CCN4CCCC4C3)n[nH]2)c1 (stereo unspecified) |  | 0.885 |
| COc1ccc(CN2CCCC(CCC(=O)NCc3ccc(OC)cc3OC)C2)c(F)c1 (stereo unspecified) |  | 1.15 |

Quoted from the listing.
Value for CC(=O)c1cccc(OCc2cc(C(=O)N3CCN4CCCC4C3)n[nH]2)c1 (stereo unspecified) under bacterial growth OD600 (polymyxin B 1 µg/mL): 0.885
Value for OC1(Cc2cc(-c3ccccc3)no2)CCN(CC2CCCCC2)CC1 under bacterial growth OD600 (polymyxin B 1 µg/mL): 0.962
Value for COC(=O)[C@@H](Nc1ccc(-c2nc(C3CC3)no2)cn1)c1ccccc1 under bacterial growth OD600 (polymyxin B 0.75 µg/mL): 0.362

(cont.)

| SMILES | bacterial growth OD600 (polymyxin B 0.75 µg/mL) | bacterial growth OD600 (polymyxin B 1 µg/mL) |
| --- | --- | --- |
| O=C(c1ccc(N2CCC(NCC3COc4ccccc4O3)CC2)cc1)N1CCOCC1 (stereo unspecified) | 0.91 |  |
| COCCC(=O)N1CCC(Oc2ccc(C(=O)N(C)C3CCCCC3)cc2)CC1 |  | 1.21 |
| COc1cccc(CC2CN(C(=O)c3cc4ccccc4o3)CCO2)c1 (stereo unspecified) | 0.47 |  |
| COc1cc(OC)c(OC)cc1CN1CCOc2ccc(C(O)Cc3ccccc3)cc2C1 (stereo unspecified) | 0.007 |  |
| O=C(CCC1CCCN(Cc2c(F)ccc(F)c2F)C1)N1CCCC1 (stereo unspecified) |  | 0.854 |
| C[C@@H]1CN(c2nncc(-c3ccc4ccccc4c3)n2)C[C@H](C)O1 |  | 1.02 |
| COc1ccc(CCCN2C(=O)O[C@@H]3CN(c4cc(C)nc(N)n4)C[C@@H]32)cc1 | 0.806 |  |
| COc1cccc(OCc2nc(C(=O)N[C@@H]3C[C@H]3c3ccccc3)co2)c1 |  | 0.927 |
| CN(C(=O)c1ccn(C)n1)C(Cc1ccccc1)C1CCN(Cc2cc(Cl)ccc2O)CC1 (stereo unspecified) | 0.675 |  |
| O=C(CCc1ccccc1)Nc1ccnn1C1CCN(C(=O)c2ccco2)CC1 |  | 0.917 |
| COCCOC1CCN(C(=O)c2cn(C(c3ccccc3)c3ccccc3)nn2)CC1 |  | 0.873 |
| Cc1cc(=O)c(C(=O)N2CCC(C3CCN(CC(C)(C)C)C3)CC2)c[nH]1 (stereo unspecified) |  | 0.998 |
| Cc1oc(-c2ccc(NC(=O)Cc3ccccc3)cc2)nc1CNC(=O)C1(c2ccccc2)CC1 | 0.963 |  |
| CCOc1ccc(CNC(C)c2cnn(-c3ccc(F)cc3F)c2C)cc1CO (stereo unspecified) | 0.852 |  |
| O=C(CCC1CCCN(C(=O)Cc2cccnc2)C1)NCc1ccccc1F (stereo unspecified) | 0.8 |  |

Source: the supplement of paper PMC12889115
